Values from PubChem BioAssay AID1053208 (Peter MacCallum Cancer Centre, 2014)
Shown is a random part of about 17,000 reagents tested. 788 of them (4.7%) count as active. 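Calls rest on z-score classes alone; an extra cut-off of viability at most 70% of control was not applied to them.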 Unmarked entries are inactive. Reagents against one gene are numbered here.

- Aim: 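Find knock-downs that sensitise mouse osteosarcoma cells to doxorubicin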 (primary screen)
- Cells: mouse osteosarcoma cells, early-passage culture from an engineered mouse model of fibroblastic bone tumour
- Reagents: siRNA pool against mouse genes, 40 nM
- Timing: about 120 h (48 h before drug, then 72 h with drug)
- Conditions: doxorubicin 100 nM for 72 h, roughly 30-40% inhibitory dose
- Detection: 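Viability read as ATP luminescence after 72 h of 100 nM doxorubicin or none, duplicate wells averaged, scaled to non-targeting siRNA, then expressed as robust z-scores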
- Scale: viability z-score with doxorubicin and doxorubicin viability vs non-targeting: higher = more viable cells under doxorubicin; viability z-score without drug: higher = more viable cells with knock-down alone; z-score of drug to no-drug ratio: higher = less drug sensitisation by knock-down
- Rule for the call: 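a pool counts as active when its viability z-score with doxorubicin is -2 or below and its z-score without drug lies between -2 and 2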

The opening 6 records as a preview:
gene symbol	reagent no.	combined z-score class	viability z-score with doxorubicin	viability z-score without drug	z-score of drug to no-drug ratio	doxorubicin viability vs non-targeting
1700020L24Rik (GeneID 66330)	1	no change with or without drug	1.8	1.85	0.67	1.1
Epb41 (GeneID 269587)	1	no change with or without drug	0.45	-0.51	1.01	0.98
Pebp1 (GeneID 23980)	1	no change with or without drug	0.34	0.51	0.11	0.97
Spred2 (GeneID 114716)	1	no change with or without drug	1.01	-0.34	1.46	1.03
Cabp2 (GeneID 29866)	1	no change with or without drug	0	1.35	-0.79	0.94
Mrps15 (GeneID 66407)	1	low cell count with doxorubicin only (active)	-2.02	-0.51	-1.69	0.76

The listing, repeating the preview:
gene symbol	reagent no.	combined z-score class	viability z-score with doxorubicin	viability z-score without drug	z-score of drug to no-drug ratio	doxorubicin viability vs non-targeting
1700020L24Rik (GeneID 66330)	1	no change with or without drug	1.8	1.85	0.67	1.1
Epb41 (GeneID 269587)	1	no change with or without drug	0.45	-0.51	1.01	0.98
Pebp1 (GeneID 23980)	1	no change with or without drug	0.34	0.51	0.11	0.97
Spred2 (GeneID 114716)	1	no change with or without drug	1.01	-0.34	1.46	1.03
Cabp2 (GeneID 29866)	1	no change with or without drug	0	1.35	-0.79	0.94
Mrps15 (GeneID 66407)	1	low cell count with doxorubicin only (active)	-2.02	-0.51	-1.69	0.76
Gins3 (GeneID 78833)	1	no change with or without drug	0.22	-0.84	1.01	0.96
Prr36 (GeneID 73072)	1	no change with or without drug	0.45	0.51	0.22	0.98
Ssbp3 (GeneID 72475)	1	no change with or without drug	0.56	1.18	-0.11	0.99
Rtn2 (GeneID 20167)	1	no change with or without drug	1.8	1.85	0.67	1.1
Fyco1 (GeneID 17281)	1	no change with or without drug	0.34	1.01	-0.22	0.97
Tmco4 (GeneID 77056)	1	no change with or without drug	0.9	0.34	0.79	1.02
Serpina11 (GeneID 380780)	1	no change with or without drug	-0.9	-0.17	-0.79	0.86
Abca14 (GeneID 67928)	1	no change with or without drug	-0.34	0.67	-0.67	0.91
Hrc (GeneID 15464)	1	no change with or without drug	1.12	-0.84	2.02	1.04
Tmem106a (GeneID 217203)	1	no change with or without drug	0.45	0.17	0.45	0.98
Dennd1c (GeneID 70785)	1	no change with or without drug	0.67	-1.18	1.8	1
Aldh1a3 (GeneID 56847)	1	no change with or without drug	-1.12	0	-1.12	0.84
Rsph1 (GeneID 22092)	1	no change with or without drug	-1.35	-0.17	-1.24	0.82
Dph5 (GeneID 69740)	1	no change with or without drug	0	-0.51	0.45	0.94
Ifitm7 (GeneID 74482)	1	no change with or without drug	-0.9	0.84	-1.35	0.86
Tars3 (GeneID 272396)	1	no change with or without drug	-0.9	-0.17	-0.79	0.86
Kif12 (GeneID 16552)	1	no change with or without drug	-0.9	-0.84	-0.22	0.86
Pnpla8 (GeneID 67452)	1	no change with or without drug	-1.91	-0.67	-1.46	0.77
Sumo1 (GeneID 22218)	1	no change with or without drug	0.67	0.51	0.45	1
Zfy2 (GeneID 22768)	1	no change with or without drug	1.12	0.51	0.9	1.04
Ptger2 (GeneID 19217)	1	no change with or without drug	-0.45	-1.01	0.34	0.9
Vmn1r87 (GeneID 171261)	1	no change with or without drug	0.67	0.51	0.45	1
Naxd (GeneID 69225)	1	no change with or without drug	1.57	1.35	0.79	1.08
Cxcl1 (GeneID 14825)	1	no change with or without drug	0.67	1.01	0.11	1
Comtd1 (GeneID 69156)	1	no change with or without drug	0.67	-0.34	1.12	1
Zfp451 (GeneID 98403)	1	no change with or without drug	-0.9	1.01	-1.46	0.86
Hcrt (GeneID 15171)	1	no change with or without drug	-0.34	-0.84	0.34	0.91
Tnfsf12 (GeneID 21944)	1	no change with or without drug	-0.9	-0.17	-0.79	0.86
Taar5 (GeneID 215854)	1	no change with or without drug	-0.22	0.17	-0.22	0.92
Chmp1b2 (GeneID 67028)	1	no change with or without drug	1.91	1.01	1.35	1.11
Erlec1 (GeneID 66753)	1	high cell count without drug only	-1.69	2.53	-2.92	0.79
Fbln1 (GeneID 14114)	1	no change with or without drug	0.11	1.35	-0.67	0.95
Gcgr (GeneID 14527)	1	no change with or without drug	-0.67	-0.51	-0.22	0.88
Gria2 (GeneID 14800)	1	no change with or without drug	0	-1.18	1.01	0.94
Rsph3a (GeneID 66832)	1	no change with or without drug	0.34	1.85	-0.67	0.97
Hcn3 (GeneID 15168)	1	no change with or without drug	-0.79	-0.17	-0.56	0.87
Zfp109 (GeneID 56869)	1	no change with or without drug	-0.22	1.85	-1.24	0.92
Cwc25 (GeneID 67480)	1	no change with or without drug	-0.22	0.34	-0.34	0.92
Abcc1 (GeneID 17250)	1	no change with or without drug	0.67	0.17	0.67	1
OSBP2	1	low cell count with and without drug	-2.02	-2.36	-0.45	0.76
Atp8b5 (GeneID 320571)	1	low cell count with doxorubicin only (active)	-2.14	0.34	-2.36	0.75
Mgst2 (GeneID 211666)	1	no change with or without drug	-0.45	-0.51	0	0.9
Creb1 (GeneID 12912)	1	no change with or without drug	-0.9	-0.17	-0.79	0.86
Creb1 (GeneID 12912)	2	no change with or without drug	1.57	0.84	1.12	1.08
Sall1 (GeneID 58198)	1	no change with or without drug	-0.34	1.18	-1.01	0.91
Creb3l4 (GeneID 78284)	1	no change with or without drug	1.46	0.67	1.12	1.07
Tinf2 (GeneID 28113)	1	no change with or without drug	0.22	0.17	0.22	0.96
Nono (GeneID 53610)	1	low cell count with doxorubicin only (active)	-2.7	0.17	-2.81	0.7
Tcta (GeneID 102791)	1	no change with or without drug	-1.8	-0.17	-1.69	0.78
Mrps30 (GeneID 59054)	1	no change with or without drug	1.01	0.17	1.01	1.03
Trpc2 (GeneID 22064)	1	low cell count with doxorubicin only (active)	-2.02	-0.17	-1.91	0.76
Pcyt1a (GeneID 13026)	1	no change with or without drug	0.45	1.85	-0.67	0.98
Mvk (GeneID 17855)	1	no change with or without drug	1.12	0.67	0.79	1.04
Anxa3 (GeneID 11745)	1	low cell count with doxorubicin only (active)	-2.25	0.17	-2.36	0.74
Pmm2 (GeneID 54128)	1	no change with or without drug	0.67	0.67	0.34	1
Ovch2 (GeneID 244199)	1	low cell count with doxorubicin only (active)	-2.7	-1.18	-2.02	0.7
Topors (GeneID 106021)	1	no change with or without drug	0.22	0.51	0	0.96
